The results in this text go back to publication PMC3824243.

Protein sequences, listed by entry. Tags and fused reporters are not part of them.
UniProt Q04MH7: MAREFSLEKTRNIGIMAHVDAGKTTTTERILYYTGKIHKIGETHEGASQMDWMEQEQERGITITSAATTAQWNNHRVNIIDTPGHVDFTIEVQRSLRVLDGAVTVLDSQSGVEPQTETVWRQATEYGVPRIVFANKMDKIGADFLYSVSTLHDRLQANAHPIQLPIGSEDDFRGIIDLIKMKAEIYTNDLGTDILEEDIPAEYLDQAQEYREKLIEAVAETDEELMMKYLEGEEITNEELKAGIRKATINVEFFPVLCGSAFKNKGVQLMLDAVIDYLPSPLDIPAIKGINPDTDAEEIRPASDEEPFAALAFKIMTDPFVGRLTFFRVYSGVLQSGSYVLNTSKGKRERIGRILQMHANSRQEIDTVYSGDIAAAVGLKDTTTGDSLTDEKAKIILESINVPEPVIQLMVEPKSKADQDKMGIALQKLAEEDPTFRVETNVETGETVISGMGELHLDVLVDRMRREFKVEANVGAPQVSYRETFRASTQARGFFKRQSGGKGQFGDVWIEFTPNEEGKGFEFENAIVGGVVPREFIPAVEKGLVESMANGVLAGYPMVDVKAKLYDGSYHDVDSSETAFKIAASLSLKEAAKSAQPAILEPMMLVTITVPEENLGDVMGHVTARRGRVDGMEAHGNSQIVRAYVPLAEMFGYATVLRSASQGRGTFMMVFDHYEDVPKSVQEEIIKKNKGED
UniProt B1ICR4: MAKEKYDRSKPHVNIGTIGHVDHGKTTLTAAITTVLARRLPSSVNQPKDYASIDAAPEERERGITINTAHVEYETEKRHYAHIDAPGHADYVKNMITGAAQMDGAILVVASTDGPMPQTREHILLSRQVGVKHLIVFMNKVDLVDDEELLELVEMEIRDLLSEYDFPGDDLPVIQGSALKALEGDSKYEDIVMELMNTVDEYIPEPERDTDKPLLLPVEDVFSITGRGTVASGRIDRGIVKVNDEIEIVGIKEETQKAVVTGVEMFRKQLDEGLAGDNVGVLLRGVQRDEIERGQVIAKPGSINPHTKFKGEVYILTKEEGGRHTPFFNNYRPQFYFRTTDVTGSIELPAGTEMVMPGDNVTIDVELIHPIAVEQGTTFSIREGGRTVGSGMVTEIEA
UniProt A0A0H2US80: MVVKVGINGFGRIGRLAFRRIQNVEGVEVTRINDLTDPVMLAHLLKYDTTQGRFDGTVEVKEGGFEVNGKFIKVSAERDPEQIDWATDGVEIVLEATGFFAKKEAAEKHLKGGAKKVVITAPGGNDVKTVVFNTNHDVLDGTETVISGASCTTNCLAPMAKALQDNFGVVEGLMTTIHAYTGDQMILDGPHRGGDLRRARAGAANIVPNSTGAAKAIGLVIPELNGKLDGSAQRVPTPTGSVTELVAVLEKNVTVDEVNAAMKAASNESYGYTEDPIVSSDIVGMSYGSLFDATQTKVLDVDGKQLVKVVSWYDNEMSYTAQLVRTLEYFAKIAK
UniProt Q04LY0: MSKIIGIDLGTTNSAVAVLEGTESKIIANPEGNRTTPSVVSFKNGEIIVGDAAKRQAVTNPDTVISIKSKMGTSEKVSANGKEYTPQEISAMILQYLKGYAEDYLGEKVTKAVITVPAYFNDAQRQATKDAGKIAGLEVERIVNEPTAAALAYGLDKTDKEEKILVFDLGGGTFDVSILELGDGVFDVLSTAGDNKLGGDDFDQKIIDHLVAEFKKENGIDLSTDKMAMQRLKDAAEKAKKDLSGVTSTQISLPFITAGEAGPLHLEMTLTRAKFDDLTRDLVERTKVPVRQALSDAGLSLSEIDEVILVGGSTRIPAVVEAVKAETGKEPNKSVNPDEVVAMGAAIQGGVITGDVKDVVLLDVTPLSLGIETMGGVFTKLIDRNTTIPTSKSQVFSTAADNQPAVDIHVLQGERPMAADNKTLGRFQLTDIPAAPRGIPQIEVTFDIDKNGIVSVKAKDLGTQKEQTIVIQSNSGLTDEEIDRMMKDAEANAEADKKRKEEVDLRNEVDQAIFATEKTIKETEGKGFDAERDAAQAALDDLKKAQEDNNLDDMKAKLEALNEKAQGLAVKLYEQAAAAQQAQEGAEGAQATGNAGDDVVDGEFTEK
UniProt Q04KG2: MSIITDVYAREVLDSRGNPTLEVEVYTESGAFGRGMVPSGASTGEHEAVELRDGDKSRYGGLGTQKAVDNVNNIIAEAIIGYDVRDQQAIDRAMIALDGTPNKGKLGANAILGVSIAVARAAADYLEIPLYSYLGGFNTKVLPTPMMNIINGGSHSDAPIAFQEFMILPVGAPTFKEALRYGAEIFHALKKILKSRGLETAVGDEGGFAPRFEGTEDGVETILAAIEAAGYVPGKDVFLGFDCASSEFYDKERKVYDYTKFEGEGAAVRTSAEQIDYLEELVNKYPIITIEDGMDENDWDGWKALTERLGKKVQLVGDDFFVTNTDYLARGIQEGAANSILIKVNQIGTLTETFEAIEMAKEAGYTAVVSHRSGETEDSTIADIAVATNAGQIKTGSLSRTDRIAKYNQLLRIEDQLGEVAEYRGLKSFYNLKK

No constants are given. Whether binding was seen depends on the method and setting. Binding seen in cells or lysates may run through a third protein. Here binding means that the protein was enriched with, or labelled near, the bait; the list need not be complete. Sequences can lack the tags named with a protein.

The chains are these.
B1: spxB gene product/pyruvate oxidase (enzyme, UniProt Q54970 1-591)
chain: MTQGKITASAAMLNVLKTWGVDTIYGIPSGTLSSLMDALAEDKDIRFLQVRHEETGALAAVMQAKFGGSIGVAVGSGGPGATHLINGVYDAAMDNTPFLAILGSRPVNELNMDAFQELNQNPMYNGIAVYNKRVAYAEQLPKVIDEACRAAVSKKGPAVVEIPVNFGFQEIDENSYYGSGSYERSFIAPALNEVEIDKAVEILNNAERPVIYAGFGGVKAGEVITELSRKIKAPIITTGKNFEAFEWNYEGLTGSAYRVGWKPANEVVFEADTVLFLGSNFPFAEVYEAFKNTEKFIQVDIDPYKLGKRHALDASILGDAGQAAKAILDKVNPVESTPWWRANVKNNQNWRDYMNKLEGKTEGELQLYQVYNAINKHADQDAIYSIDVGNTTQTSTRHLHMTPKNMWRTSPLFATMGIALPGGIAAKKDNPDRQVWNIMGDGAFNMCYPDVITNVQYDLPVINLVFSNAEYGFIKNKYEDTNKHLFGVDFTNADYAKIAEAQGAVGFTVDRIEDIDAVVAEAVKLNKEGKTVVIDARITQHRPLPVEVLELDPKLHSEEAIKAFKEKYEAEELVPFRLFLEEEGLQSRAIK
B2: rplC gene product/ribosomal protein L3 (protein, UniProt B1I8J8 1-208)
chain: MTKGILGKKVGMTQIFTEAGELIPVTVIEATPNVVLQVKTVETDGYNAIQVGFDDKREVLSNKPAKGHVAKANTAPKRFIREFKNVEGLEVGAEITVETFAAGDVVDVTGTSKGKGFQGVIKRHGQSRGPMAHGSRYHRRPGSMGPVAPNRVFKGKNLAGRMGGDRVTIQNLEVVQVVPEKNVILIKGNVPGAKKSLITIKSAVKAGK

The experiment deals with T1, DnaJ-GFP fusion protein (Streptococcus pneumoniae D39) (UniProt P95830).
T1 sequence: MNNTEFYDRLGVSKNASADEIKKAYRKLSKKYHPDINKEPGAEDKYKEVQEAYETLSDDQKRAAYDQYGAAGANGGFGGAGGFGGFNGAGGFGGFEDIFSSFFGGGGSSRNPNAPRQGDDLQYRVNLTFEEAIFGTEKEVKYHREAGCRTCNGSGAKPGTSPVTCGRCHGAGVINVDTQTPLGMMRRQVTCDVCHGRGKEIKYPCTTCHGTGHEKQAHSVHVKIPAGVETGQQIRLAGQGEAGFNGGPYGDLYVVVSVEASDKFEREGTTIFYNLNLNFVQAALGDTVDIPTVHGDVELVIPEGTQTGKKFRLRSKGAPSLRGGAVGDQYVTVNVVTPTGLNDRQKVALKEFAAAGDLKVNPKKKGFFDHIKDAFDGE
Briefly: affinity purification with mass spectrometry; co-IP of DnaJ-GFP from cleared lysate of D39-dnaJ-gfp with GFP antibody and protein G-agarose beads, 4 °C overnight, five PBS washes; SDS-PAGE bands that differed from wild type D39 identified by MALDI-TOF MS.
Consider “bi-functional acetaldehyde-CoA/alcohol dehydrogenase (enzyme)”, for which the binding result is given as “binds”.
As to “fusA gene product/translation elongation factor G (from UniProt Q04MH7 1-693)”, the binding result was “binds”.
For the molecule “tuf gene product/translation elongation factor Tu (from UniProt B1ICR4 1-398)”, the binding entry is given as “binds”.
For the molecule “gap gene product/glyceraldehyde-3-phosphate dehydrogenase, type I (from UniProt A0A0H2US80 1-335) (enzyme)”, the binding entry is recorded as “binds”.
For the molecule rplF gene product/ribosomal protein L6, the binding entry is “binds”.
For “chaperone protein DnaK (from UniProt Q04LY0 1-607)”, the binding entry is “binds”.
Next, “eno gene product/phosphopyruvate hydratase (from UniProt Q04KG2 1-434) (enzyme)”: “binds”; B1: “binds”; B2: “binds”.
